The target in this experiment is HA-Rab11a (WT) (human) (UniProt P62491). As to the kind of experiment: co-IP; lysates of A549-HA-Rab11a cells infected with wild type RSV (16 h) incubated overnight at 4°C with Magnetic-HA beads; lysis buffer Tris 25 mM pH 7.2, NaCl 150 mM, IGEPAL CA-630 0.2%, glycerol 10%, EDTA 0.5 mM; wild type A549 cells as control; western blot. A general note: A western blot detects proteins with antibodies after separation by electrophoresis.

Amino acid sequences for entries named in this document (tags omitted).
UniProt P62491: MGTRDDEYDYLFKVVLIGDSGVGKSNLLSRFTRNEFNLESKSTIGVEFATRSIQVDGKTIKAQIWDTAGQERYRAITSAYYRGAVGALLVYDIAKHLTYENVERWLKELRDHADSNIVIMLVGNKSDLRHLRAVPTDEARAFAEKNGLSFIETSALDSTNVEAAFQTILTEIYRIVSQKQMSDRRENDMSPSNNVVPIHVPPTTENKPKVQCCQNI
UniProt P12579: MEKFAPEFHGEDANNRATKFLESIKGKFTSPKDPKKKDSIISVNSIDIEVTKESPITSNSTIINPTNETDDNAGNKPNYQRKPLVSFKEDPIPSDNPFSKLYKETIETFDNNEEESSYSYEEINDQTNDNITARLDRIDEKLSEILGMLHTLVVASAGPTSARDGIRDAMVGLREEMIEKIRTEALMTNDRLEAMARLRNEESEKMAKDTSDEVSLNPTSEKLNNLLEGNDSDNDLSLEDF

Results are given in words; binding and its absence hold for the method and conditions named. Binding seen in cells or lysates may run through a third protein. Some binding calls cover weakened binding; strength is not graded here.

From PMC9262236 come the findings set out here.

As to “RSV phosphoprotein P (from UniProt P12579 1-241)”, the binding entry is “binds”.
